The text below walks through data of PMC10980718.

In the assay the target is STING (Stimulator of interferon genes) (human (endogenous in THP1)), Q86WV6. Description: co-IP; endogenous STING or STEEP immunoprecipitated from THP1 cells pre-treated with mock or MβCD (2 mM) and then stimulated with cGAMP (50 µg/ml); IgG from sheep/rabbit serum as negative controls; immunoblot. The note with it: remark: other sources report otherwise. Background: Immunoblotting shows a protein as a band on a membrane.

No constants are given. Whether binding was seen depends on the method and setting. Binding seen in cells or lysates may run through a third protein. Some entries that bind do so weakly or less than the wild type.

B1: TANK-binding kinase 1 (TBK1), Q9UHD2 1-729 (protein)
chain: MQSTSNHLWLLSDILGQGATANVFRGRHKKTGDLFAIKVFNNISFLRPVDVQMREFEVLKKLNHKNIVKLFAIEEETTTRHKVLIMEFCPCGSLYTVLEEPSNAYGLPESEFLIVLRDVVGGMNHLRENGIVHRDIKPGNIMRVIGEDGQSVYKLTDFGAARELEDDEQFVSLYGTEEYLHPDMYERAVLRKDHQKKYGATVDLWSIGVTFYHAATGSLPFRPFEGPRRNKEVMYKIITGKPSGAISGVQKAENGPIDWSGDMPVSCSLSRGLQVLLTPVLANILEADQEKCWGFDQFFAETSDILHRMVIHVFSLQQMTAHKIYIHSYNTATIFHELVYKQTKIISSNQELIYEGRRLVLEPGRLAQHFPKTTEENPIFVVSREPLNTIGLIYEKISLPKVHPRYDLDGDASMAKAITGVVCYACRIASTLLLYQELMRKGIRWLIELIKDDYNETVHKKTEVVITLDFCIRNIEKTVKVYEKLMKINLEAAELGEISDIHTKLLRLSSSQGTIETSLQDIDSRLSPGGSLADAWAHQEGTHPKDRNVEKLQVLLNCMTEIYYQFKKDKAERRLAYNEEQIHKFDKQKLYYHATKAMTHFTDECVKKYEAFLNKSEEWIRKMLHLRKQLLSLTNQCFDIEEEVSKYQEYTNELQETLPQKMFTASSGIKHTMTPIYPSSNTLVEMTLGMKKLKEEMEGVVKELAENNHILERFGSLTMDGGLRNVDCL
As to B1, the binding result is reported as “binds”.
